Laboratory results as given in the supplement of paper PMC4604168 (melanoma cell lines).
This is one part of the list. Many values rest on one well or one pass, so single values are uncertain.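 The apoptosis fraction was the count of cleaved-PARP antibody-stained nuclei relative to all DNA-stained nuclei, imaged in 1,536-well plates. Screening doses were set so most cells survived, and baseline and induced cleaved-PARP levels vary greatly across cell lines.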

Each compound was assayed on CBRC016 (line from a melanoma biopsy) (assay: cleaved PARP positive nuclei fraction relative to DMSO control; melanoma cells; higher = more apoptosis). Details: library dose: low library concentration; 72 h.

SMILES | cleaved PARP positive nuclei fraction [%]
NC1(c2ccc(-c3nc4ccn5c(=O)[nH]nc5c4cc3-c3ccccc3)cc2)CCC1 + Cc1cc([N+](=O)[O-])ccc1NS(=O)(=O)c1cc(Cl)ccc1Cl [FH535] (first compound 0.4 µM, partner dose 1 µM) | 228
NC1(c2ccc(-c3nc4ccn5c(=O)[nH]nc5c4cc3-c3ccccc3)cc2)CCC1 + O=S(=O)(c1ccccc1)N(CC(F)(F)F)c1ccc(C(O)(C(F)(F)F)C(F)(F)F)cc1 [T0901317] (first compound 0.4 µM, partner dose 1.4 µM) | 67
CS(=O)(=O)c1ccc(C(=O)Nc2ccc(Cl)c(-c3ccccn3)c2)c(Cl)c1 [vismodegib] + Oc1cc(-c2nc(-c3ccccc3)[nH]c2-c2ccncc2)ccc1Cl [L779450] (first compound 1 µM, partner dose 0.2 µM) | 77.7
C[C@]1(O)C[C@@H](c2nc(-c3ccc4ccc(-c5ccccc5)nc4c3)c3c(N)nccn32)C1 + CC(C)CCN1c2nc(Nc3cc(F)c(O)c(F)c3)ncc2N(C)C(=O)C1C [BID1870] (first compound 0.4 µM, partner dose 0.2 µM) | 33.8
Cn1cnc2c(F)c(Nc3ccc(Br)cc3Cl)c(C(=O)NOCCO)cc21 [selumetinib] + CC(C)CCN1c2nc(Nc3cc(F)c(O)c(F)c3)ncc2N(C)C(=O)C1C [BID1870] (first compound 0.015 µM, partner dose 0.2 µM) | 70.6
C[C@]1(O)C[C@@H](c2nc(-c3ccc4ccc(-c5ccccc5)nc4c3)c3c(N)nccn32)C1 + CCN(CC)CCCCNc1ncc2cc(-c3cc(OC)cc(OC)c3)c(NC(=O)NC(C)(C)C)nc2n1 [PD173074] (first compound 0.4 µM, partner dose 0.1 µM) | 95.2
CCCCCCCCc1ccc(CCC(N)(CO)CO)cc1 [fingolimod] + Cn1cc(/C=C2\C(=O)Nc3cccnc32)c2ccccc21 [GW441756] (first compound 2 µM, partner dose 0.4 µM) | 27.9
CS(=O)(=O)c1ccc(C(=O)Nc2ccc(Cl)c(-c3ccccn3)c2)c(Cl)c1 [vismodegib] + COc1ccc(COc2ccc(Cc3cnc(N)nc3N)cc2OC)cc1 [GW2580] (first compound 1 µM, partner dose 1 µM) | 48
CC(=O)O[C@@]12CO[C@@H]1C[C@H](O)[C@@]1(C)C(=O)[C@H](O)C3=C(C)[C@@H](OC(=O)[C@H](O)[C@@H](NC(=O)OC(C)(C)C)c4ccccc4)C[C@@](O)([C@@H](OC(=O)c4ccccc4)[C@H]21)C3(C)C [Docetaxel] + c1cc(-c2cnn3cc(-c4ccc(OCCN5CCCCC5)cc4)cnc23)ccn1 [Dorsomorphin] (first compound 0.0001 µM, partner dose 0.4 µM) | 90
CS(=O)(=O)c1ccc(C(=O)Nc2ccc(Cl)c(-c3ccccn3)c2)c(Cl)c1 [vismodegib] + O=C(Nc1ccccc1)c1cc([N+](=O)[O-])ccc1Cl [GW9662] (first compound 1 µM, partner dose 2 µM) | 64.9
NC(=O)c1ccc(N(C(N)=O)c2c(F)cccc2F)nc1-c1ccc(F)cc1F + COc1ccc(-c2ccc3c(N4CCOCC4)nc(N4C[C@@H](C)O[C@@H](C)C4)nc3n2)cc1CO [KU0063794] (first compound 0.4 µM, partner dose 0.02 µM) | 37.6
CN(c1ncccc1CNc1nc(Nc2ccc3c(c2)CC(=O)N3)ncc1C(F)(F)F)S(C)(=O)=O + Oc1nc(-c2ccc(C(F)(F)F)cc2)nc2c1CSCC2 [XAV939] (first compound 0.08 µM, partner dose 2 µM) | 42.4
CS(=O)(=O)c1ccc(C(=O)Nc2ccc(Cl)c(-c3ccccn3)c2)c(Cl)c1 [vismodegib] + COC(=O)c1sccc1S(=O)(=O)Nc1ccc(Nc2ccccc2)cc1OC [GSK0660] (first compound 1 µM, partner dose 1 µM) | 65.5
Cn1sc(=O)n(Cc2ccccc2)c1=O + O=C(O)C(=O)Nc1sc2c(c1C(=O)O)CCNC2 [TCS401] (first compound 0.4 µM, partner dose 1.66667 µM) | 63.7
Cn1cnc2c(F)c(Nc3ccc(Br)cc3Cl)c(C(=O)NOCCO)cc21 [selumetinib] + N#Cc1c(O)c2c(-c3ccc(-c4ccccc4O)cc3)csc2[nH]c1=O [A769662] (first compound 0.015 µM, partner dose 2 µM) | 95.5
CCN(CC)CCNC(=O)c1c(C)[nH]c(/C=C2\C(=O)Nc3ccc(F)cc32)c1C [sunitinib] + N#Cc1c(O)c2c(-c3ccc(-c4ccccc4O)cc3)csc2[nH]c1=O [A769662] (first compound 0.4 µM, partner dose 2 µM) | 152

Rewritten as a markdown table: entries from further up.

| SMILES | cleaved PARP positive nuclei fraction [%] |
| --- | --- |
| NC(=O)c1ccc(N(C(N)=O)c2c(F)cccc2F)nc1-c1ccc(F)cc1F + COc1ccc(-c2ccc3c(N4CCOCC4)nc(N4C[C@@H](C)O[C@@H](C)C4)nc3n2)cc1CO [KU0063794] (first compound 0.4 µM, partner dose 0.02 µM) | 37.6 |
| CN(c1ncccc1CNc1nc(Nc2ccc3c(c2)CC(=O)N3)ncc1C(F)(F)F)S(C)(=O)=O + Oc1nc(-c2ccc(C(F)(F)F)cc2)nc2c1CSCC2 [XAV939] (first compound 0.08 µM, partner dose 2 µM) | 42.4 |

Remaining list, next part

SMILES | cleaved PARP positive nuclei fraction [%]
CS(=O)(=O)c1ccc(C(=O)Nc2ccc(Cl)c(-c3ccccn3)c2)c(Cl)c1 [vismodegib] + Cn1cc(/C=C2\C(=O)Nc3cccnc32)c2ccccc21 [GW441756] (first compound 1 µM, partner dose 0.4 µM) | 68.5
COc1ccc(C2=N[C@@H](c3ccc(Cl)cc3)[C@@H](c3ccc(Cl)cc3)N2C(=O)N2CCNC(=O)C2)c(OC(C)C)c1 [Nutlin-3] + Cn1cc(/C=C2\C(=O)Nc3cccnc32)c2ccccc21 [GW441756] (first compound 0.1 µM, partner dose 0.4 µM) | 40.1
COc1ccc(C2=N[C@@H](c3ccc(Cl)cc3)[C@@H](c3ccc(Cl)cc3)N2C(=O)N2CCNC(=O)C2)c(OC(C)C)c1 [Nutlin-3] + COc1ccc(COc2ccc(Cc3cnc(N)nc3N)cc2OC)cc1 [GW2580] (first compound 0.1 µM, partner dose 1 µM) | 50
C[C@@H](N)c1ccc(C(=O)Nc2ccnc3[nH]ccc23)cc1 + O=C1NC(=O)/C(=C/c2ccc(-c3ccc(F)cc3O)o2)S1 [AS252424] (first compound 0.4 µM, partner dose 1 µM) | 75.9
C[C@]1(O)C[C@@H](c2nc(-c3ccc4ccc(-c5ccccc5)nc4c3)c3c(N)nccn32)C1 + Oc1cc(-c2nc(-c3ccccc3)[nH]c2-c2ccncc2)ccc1Cl [L779450] (first compound 0.4 µM, partner dose 0.2 µM) | 27.8
CCCCCCCCc1ccc(CCC(N)(CO)CO)cc1 [fingolimod] + COC(=O)c1sccc1S(=O)(=O)Nc1ccc(Nc2ccccc2)cc1OC [GSK0660] (first compound 2 µM, partner dose 1 µM) | 27.1
CCN(CC)CCNC(=O)c1c(C)[nH]c(/C=C2\C(=O)Nc3ccc(F)cc32)c1C [sunitinib] + O=C1NC(=O)/C(=C/c2ccc(-c3ccc(F)cc3O)o2)S1 [AS252424] (first compound 0.4 µM, partner dose 1 µM) | 99.5
NC1(c2ccc(-c3nc4ccn5c(=O)[nH]nc5c4cc3-c3ccccc3)cc2)CCC1 + CC(C)CCN1c2nc(Nc3cc(F)c(O)c(F)c3)ncc2N(C)C(=O)C1C [BID1870] (first compound 0.4 µM, partner dose 0.2 µM) | 39.8
CC(=O)O[C@@]12CO[C@@H]1C[C@H](O)[C@@]1(C)C(=O)[C@H](O)C3=C(C)[C@@H](OC(=O)[C@H](O)[C@@H](NC(=O)OC(C)(C)C)c4ccccc4)C[C@@](O)([C@@H](OC(=O)c4ccccc4)[C@H]21)C3(C)C [Docetaxel] + CCCCCCCCCCCC1=C(O)C(=O)C=C(O)C1=O [Embelin] (first compound 0.0001 µM, partner dose 1.2 µM) | 225
Cn1cnc2c(F)c(Nc3ccc(Br)cc3Cl)c(C(=O)NOCCO)cc21 [selumetinib] + COc1ccc(COc2ccc(Cc3cnc(N)nc3N)cc2OC)cc1 [GW2580] (first compound 0.015 µM, partner dose 1 µM) | 37.7
C[C@]1(O)C[C@@H](c2nc(-c3ccc4ccc(-c5ccccc5)nc4c3)c3c(N)nccn32)C1 + O=C(O)C(=O)Nc1sc2c(c1C(=O)O)CCNC2 [TCS401] (first compound 0.4 µM, partner dose 1.66667 µM) | 83.4
CCN(CC)CCNC(=O)c1c(C)[nH]c(/C=C2\C(=O)Nc3ccc(F)cc32)c1C [sunitinib] + c1cc(-c2cnn3cc(-c4ccc(OCCN5CCCCC5)cc4)cnc23)ccn1 [Dorsomorphin] (first compound 0.4 µM, partner dose 0.4 µM) | 38.2
CC1(C)CCC(c2ccc(Cl)cc2)=C(CN2CCN(c3ccc(C(=O)NS(=O)(=O)c4ccc(N[C@H](CCN5CCOCC5)CSc5ccccc5)c(S(=O)(=O)C(F)(F)F)c4)cc3)CC2)C1 + COc1cc(N2CCC(N3CCN(C)CC3)CC2)ccc1Nc1ncc(Cl)c(Nc2ccccc2S(=O)(=O)C(C)C)n1 [NVP-TAE684] (first compound 0.4 µM, partner dose 0.08 µM) | 664
Cn1sc(=O)n(Cc2ccccc2)c1=O + CCN(CC)CCCCNc1ncc2cc(-c3cc(OC)cc(OC)c3)c(NC(=O)NC(C)(C)C)nc2n1 [PD173074] (first compound 0.4 µM, partner dose 0.1 µM) | 102
CCN(CC)CCNC(=O)c1c(C)[nH]c(/C=C2\C(=O)Nc3ccc(F)cc32)c1C [sunitinib] + CCCCCCCCCCCC1=C(O)C(=O)C=C(O)C1=O [Embelin] (first compound 0.4 µM, partner dose 1.2 µM) | 22.4
